Experimental data: patent publication US8637647 (dated 2014)

Assay: peptide synthesis
Settings: lipidation step, RP HPLC (260 nm)

A14E, B25H, B29K(N^εEicosanedioyl-gGlu-OEG-OEG), desB27, desB30 human insulin
crude LC-MS purity: 61.7% | final LC-MS purity: 100% purity
